This experiment relates to P388 leukemia ip, CD2F1 mice, survival T/C. The experiment is described as follows: NCI In Vivo Anticancer Drug Screen. Data for tumor model P388 Leukemia (intraperitoneal) in CD2F1 (CDF1) mice. Conditions: T/C endpoint: median survival time, higher T/C = longer survival.
Where [1] appears, read: dose: 50.0 mg/kg/injection, schedule: Q01DX009 (ip), vehicle: saline with Tween-80.
[2] abbreviates: dose: 100.0 mg/kg/injection, schedule: Q01DX009 (ip), vehicle: saline with Tween-80.
[3] abbreviates: dose: 100.0 mg/kg/injection, schedule: Q01DX009 (ip), vehicle: suspension in saline.
The mark [4] stands for this setting: dose: 200.0 mg/kg/injection, schedule: Q01DX009 (ip), vehicle: saline with Tween-80.
The mark [5] stands for this setting: dose: 200.0 mg/kg/injection, schedule: Q01DX009 (ip), vehicle: suspension in saline.
Setting [6] is: dose: 100.0 mg/kg/injection, schedule: Q01DX009 (ip), vehicle: saline.
Setting [7] is: dose: 200.0 mg/kg/injection, schedule: Q01DX005 (ip), vehicle: saline with Tween-80.
The mark [8] stands for this setting: dose: 200.0 mg/kg/injection, schedule: Q01DX009 (ip), vehicle: saline.

We go through 32 compounds from PubChem BioAssay AID330 (DTP/NCI, 2004).

The list shows only some results of the screen, not a fair sample: it is rich in T/C values a quarter to a half above the control, in often repeated tests (any T/C) and in doses without a T/C. Further doses and runs are listed elsewhere. T/C is the treated group as % of the vehicle group. Some entries give survivors of the animals treated and no T/C: the source files T/C as zero there, which appears to mark a toxic dose or a test without result, not a measured value. Some survivor counts are full or nearly so, which does not show that the dose was tolerated: the source hardly ever lists a survival T/C far under the control, and the zero likely stands for such cases as well. Survivors were counted at the toxicity check, usually on the fifth day, unless a day is given; later deaths do not show. Schedules are NCI's codes, taken here to give the interval after Q, in days (D) or hours (H), and the number of doses after X. Some doses were run more than once; the values are given in rising order. Some structures stand for samples that the source files as different forms (salt, stereo form or complex); doses refer to the form tested. For survival time, the PubChem record calls one and a half times the control and up active, and a quarter to a half above the control has no call in these data; cut-offs in other NCI protocols can differ.

For the compound `CO[C@H]1/C=C/O[C@@]2(C)Oc3c(C)c(O)c4c(O)c(c(/C=N/N5CCCN(Cc6ccccc6)CC5)c(O)c4c3C2=O)NC(=O)/C(C)=C\C=C\[C@H](C)[C@H](O)C(C)[C@@H](O)C(C)[C@H](OC(C)=O)[C@@H]1C` (some centres undefined), the T/C was 125 % of control under setting [1]; 128 % of control (dose: 50.0 mg/kg/injection, schedule: Q01DX009 (ip), vehicle: suspension in saline); 125 % of control under setting [2]; 128 % of control under setting [3]. Further, the survivor count is recorded as 4 of 6 under setting [4] and 6 of 6 under setting [5].

For `C=Cc1cncc2c1CCOC2=O`, the survivor count (dose: 15.0 mg/kg/injection, schedule: Q01DX005 (ip), vehicle: Klucel (hydroxypropylcellulose) (HPC)) is 6 of 6.

`COC1=NC=CC=CC1`: the survivor count is, setting by setting: under setting [1], 6 of 6; under setting [2], 1 of 6; under setting [4], 0 of 6.

Turning to `O=[N+]([O-])c1ccc(S(=O)(=O)OI(O)c2ccccc2)cc1`, where the note is “dose: 200.0 mg/kg/injection, schedule: Q01DX009 (ip), vehicle: water”, the survivor count is 0 of 6.

With `O=[N+]([O-])c1cccc(SNCCO)c1`, the survivor count reads like this: under setting [2], 0 of 6; under setting [4], 0 of 6.

`COc1cccc2c1C(=O)c1c(O)c3c(c(O)c1C2=O)C[C@@](O)(CCO)C[C@@H]3OC1CC(N)C(O)C(C)O1` (some centres undefined): the T/C reads like this: (dose: 0.39 mg/kg/injection, schedule: Q01DX009 (ip), vehicle: water) 128 % of control; (dose: 4.7 mg/kg/injection, schedule: Q04DX003 (ip), vehicle: water) 128 % of control; (dose: 9.4 mg/kg/injection, schedule: Q04DX003 (ip), vehicle: water) 133 % of control; (dose: 18.8 mg/kg/injection, schedule: Q04DX003 (ip), vehicle: water) 146 % of control; (dose: 37.5 mg/kg/injection, schedule: Q04DX003 (ip), vehicle: water) 133 and 146 % of control. In addition, the survivor count (dose: 6.25 mg/kg/injection, schedule: Q01DX009 (ip), vehicle: water) is recorded as 6 of 6; the survivor count (dose: 12.5 mg/kg/injection, schedule: Q01DX009 (ip), vehicle: water) was 6 of 6; the survivor count (dose: 25.0 mg/kg/injection, schedule: Q01DX009 (ip), vehicle: water) is recorded as 6 of 6.

Regarding `CN(C)CCOCC(O)(c1ccccc1)c1ccccc1`, the survivor count under setting [5] is listed as 4 of 6.

Turning to `Cn1c(O)c(N=O)c(=O)n(C)c1=O`, the survivor count under setting [4] is reported as 0 of 6.

`O=C1C(O)=C(c2ccccc2)C(=O)C(O)=C1c1ccccc1`: the T/C (dose: 25.0 mg/kg/injection, schedule: Q01DX009 (ip), vehicle: saline) was 129 and 149 % of control. Further, the survivor count under setting [6] is 0 of 6 and 4 of 6.

Turning to `O=C(CCCl)NN=C(c1ccccc1)c1ccccc1`, the survivor count runs as follows: under setting [1], 5 of 6; under setting [2], 0 of 6; under setting [4], 0 of 6.

As to `CO[C@@]12[C@@H]3N[C@@H]3CN1C1=C(C(=O)C(NCC3CCCO3)=C(C)C1=O)[C@@H]2COC(N)=O` (some centres undefined), the T/C by setting is: (dose: 3.12 mg/kg/injection, schedule: Q01DX005 (ip), vehicle: distilled water + Tween-80) 146 % of control; (dose: 3.13 mg/kg/injection, schedule: Q01DX001 (ip), vehicle: distilled water + Tween-80) 145 % of control; (dose: 6.25 mg/kg/injection, schedule: Q01DX001 (ip), vehicle: distilled water + Tween-80) 142 % of control.

For the compound `CCCCCCNP1(NCCCCCC)=NP(NCCCCCC)(NCCCCCC)=NP(NCCCCCC)(NCCCCCC)=NP(NCCCCCC)(NCCCCCC)=N1`, the survivor count (dose: 150.0 mg/kg/injection, schedule: Q01DX005 (ip), vehicle: Klucel (hydroxypropylcellulose) (HPC)) is given as 4 of 4.

`CCN(CC)CCOCC1CC2C(C=C1C)C2(C)C` (centres undefined): under “dose: 200.0 mg/kg/injection, schedule: Q01DX005 (ip), vehicle: saline”, the survivor count is listed as 0 of 6.

Consider `CC(=O)SCc1nc2ccccc2[nH]1`, for which, under setting [4], the survivor count was 5 of 6.

On to `COc1ccc(-c2nnc(-c3ccc(Cl)cc3)c(=O)[nH]2)cc1`, for which the survivor count is on record as 6 of 6 (dose: 25.0 mg/kg/injection, schedule: Q01DX005 (ip), vehicle: saline with Tween-80); 6 of 6 (dose: 50.0 mg/kg/injection, schedule: Q01DX005 (ip), vehicle: saline with Tween-80); 6 of 6 (dose: 100.0 mg/kg/injection, schedule: Q01DX005 (ip), vehicle: saline with Tween-80); 6 of 6 under setting [7].

As to `CC(=O)OC(C(=O)N1CC1)C(OC(C)=O)C(OC(C)=O)C(OC(C)=O)C(=O)N1CC1` (centres undefined), the survivor count by setting is: (dose: 100.0 mg/kg/injection, schedule: Q01DX009 (ip), vehicle: Klucel (hydroxypropylcellulose) (HPC)) 3 of 6; (dose: 200.0 mg/kg/injection, schedule: Q01DX009 (ip), vehicle: Klucel (hydroxypropylcellulose) (HPC)) 1 of 6.

Take `c1ccc(Sc2c(-c3ccccc3)c(-c3ccccc3)c3n2CCC3)cc1`: the survivor count (dose: 240.0 mg/kg/injection, schedule: Q01DX005 (ip), vehicle: Klucel (hydroxypropylcellulose) (HPC)) was 6 of 6.

Consider `Cc1ccc(NC(=O)Oc2c(C)cc(Cl)cc2C)c([N+](=O)[O-])c1`, for which, under setting [2], the survivor count was 6 of 6.

On to `O=C(OC1OC(COCc2ccccc2)C(OCc2ccccc2)C(OCc2ccccc2)C1OCc1ccccc1)c1ccc([N+](=O)[O-])cc1` (centres undefined), for which, for the setting “dose: 400.0 mg/kg/injection, schedule: Q01DX001 (ip), vehicle: saline with Tween-80”, the survivor count was 6 of 6.

Consider `CC1CC[N-]CC1.CC1CC[N-]CC1.CC1CC[N-]CC1.CC1CC[N-]CC1.[Cl][Rh][Cl]`, for which, under setting [2], the survivor count is 6 of 6.

Consider `O=C(O)C(Cc1ccccc1)NSc1ccccc1[N+](=O)[O-]` (centres undefined), for which the survivor count (dose: 400.0 mg/kg/injection, schedule: Q01DX009 (ip), vehicle: distilled water + Tween-80) is 1 of 6 and 3 of 6.

With `CNCc1c(C)[nH]c2ccc(N(C)C)cc2c1=O`, the survivor count (dose: 240.0 mg/kg/injection, schedule: Q01DX005 (ip), vehicle: saline with Tween-80) is 0 of 6.

For the compound `CC(C)[CH2][Pb]([CH2]C(C)C)([CH2]C(C)C)[n]1ccnc1`, the survivor count runs as follows: (dose: 50.0 mg/kg/injection, schedule: Q01DX009 (ip), vehicle: saline) 0 of 6; under setting [6], 0 of 6; under setting [8], 0 of 6.

As for `O=C(NC(Cc1ccccc1)C(=O)O)OCc1ccccc1` (centres undefined), for the setting “dose: 600.0 mg/kg/injection, schedule: Q01DX009 (ip), vehicle: saline with Tween-80”, the survivor count is recorded as 0 of 6.

On to `O=C1OC(C(O)CO)C(O)=C1OC[N+]1(CCCl)CCN(CCCl)CC1` (centres undefined), for which, under setting [8], the T/C is 126 % of control.

As to `CCCCCCC(Nc1ncnc(Cl)c1N)C(C)O` (centres undefined), the survivor count under setting [1] was 0 of 6.

Take `CN(C)c1ccc2nc3ccc(=[N+](C)C)c([N+](=O)[O-])c-3sc2c1`: the survivor count (dose: 60.0 mg/kg/injection, schedule: Q01DX005 (ip), vehicle: saline) was 1 of 6; the survivor count (dose: 120.0 mg/kg/injection, schedule: Q01DX005 (ip), vehicle: saline) was 0 of 6; the survivor count under setting [7] is on record as 0 of 5; the survivor count (dose: 240.0 mg/kg/injection, schedule: Q01DX005 (ip), vehicle: saline) is 0 of 6.

Consider `C[C@]12CC[C@@H]3c4ccc(O)cc4CC[C@H]3[C@@H]1CC[C@@H]2NCCCCCCO`, for which the survivor count (dose: 200.0 mg/kg/injection, schedule: Q01DX005 (ip), vehicle: Klucel (hydroxypropylcellulose) (HPC)) is given as 6 of 6.

Take `C1OC1C1CO1` (centres undefined): the T/C (dose: 10.0 mg/kg/injection, schedule: Q01DX009 (ip), vehicle: saline) is 131 % of control.

As to `O=C1NC(c2cccc3ccccc23)Nc2ccc(O)cc21` (centres undefined), the survivor count (dose: 100.0 mg/kg/injection, schedule: Q01DX005 (ip), vehicle: DMSO) is listed as 6 of 6; the survivor count (dose: 200.0 mg/kg/injection, schedule: Q01DX005 (ip), vehicle: DMSO) is reported as 6 of 6; the survivor count (dose: 400.0 mg/kg/injection, schedule: Q01DX005 (ip), vehicle: DMSO) was 6 of 6.

With `CN(C)c1ccc(N=C2C=CC(=O)C(Cl)=C2)cc1`, the survivor count is, setting by setting: under setting [3], 6 of 6; under setting [5], 0 of 6.

For the compound `CSc1ccc(N=C(N)N)cc1`, the survivor count under setting [4] is given as 2 of 6.
